Data on 2 sequences can be found in article PMC11684077.

The exact form of at least one protein or probe is not confirmed.

The data set deals with MBP-TGA4 (Solanum lycopersicum). Description: EMSA. To be noted: LightShift Chemiluminescent EMSA Kit (Thermo 20148) guidelines; 3'-biotin probes; competitors 1,000-fold; pH and temperature not stated; recombinant protein; protein details: MBP; label: 3' biotin.

With “AAACACACGTCAGGCTTCCA (double strand) [NRT2.1 probe]”, the binding result was “binds”. Consider “TATCTTTTTGACGTGCAATA (double strand) [NRT1.1 probe]”, for which the binding result was “binds”.
